These are literature values, as cited in US5061729A, “Pharmaceutical composition and process for preparing the same” (priority 1988, dated 1991).

For the data set the following is noted: with sulfhydryl-containing compounds, particularly acetylcysteine; cited from earlier work.

`CC1=C(C(=O)O)N2C(=O)[C@@H](NC(=O)[C@H](N)c3ccccc3)[C@H]2SC1` [cephalexin]: the “influence of sulfhydryl-containing compounds on absorption from the stomach” value is on record as “certain but not significant extent of retardation”.
